Legend:
TGY186/pTG10435 = experiment: Bioconversion of pregnenolone or progesterone by strain expressing bovine P45017α; assay type: cell-based, S. cerevisiae; conditions: 48 hours at 28° C.
TGY158/pTG10862 = experiment: Bioconversion of pregnenolone by strain expressing human 3β-HSD; assay type: cell-based, S. cerevisiae; conditions: Strain TGY15B, plasmid pTG10862, 100 μg/ml pregnenolone, 24 h at 28° C., 3 clones

SMILES | Steroid measured by RP-HPLC after growth and bioconversion (TGY186/pTG10435; Substrate: Pregnenolone) | Steroid measured by RP-HPLC after growth and bioconversion (TGY186/pTG10435; Substrate: Progesterone) | Steroid measured by RP-HPLC after growth and bioconversion (TGY158/pTG10862) | Steroid measured by RP-HPLC after growth and bioconversion (TGY158/pTG10862; listed as pregnenolone)
CC(=O)[C@@]1(O)CC[C@H]2[C@@H]3CC=C4C[C@@H](O)CC[C@]4(C)[C@H]3CC[C@@]21C [17α-OH pregnenolone, 17α-hydroxypregnenolone] | 42.0 µg/mL | – | – | –
CC(=O)[C@H]1CC[C@H]2[C@@H]3CCC4=CC(=O)CC[C@]4(C)[C@H]3CC[C@]12C [Progesterone] | – | 41.4 µg/mL | 15.2 µg/mL | –
CC(=O)[C@H]1CC[C@H]2[C@@H]3CC=C4C[C@@H](O)CC[C@]4(C)[C@H]3CC[C@]12C [Pregnenolone] | 67.1 µg/mL | – | 94 µg/mL | recovered almost quantitatively
